# Measured values as given in publication PMC7338081.
# These are yes or no findings as the source states them, for the method shown. In cells and extracts the contact can be indirect. For part of these data: A result given as binding can be weak or reduced; the word gives no strength.
# B1: Rcf2 (protein, UniProt P53721 1-224)
# chain: MKILTQDEIEAHRSHTLKGGIEGALAGFAISAIIFKVLPRRYPKFKPSTLTWSIKTALWITPPTVLTAICAEEASNNFDATMYGSGSSSEDALDEHRRWKSLSTKDKFVEGLSNNKYKIITGAWAASLYGSWVIVNKDPIMTKAQKIVQARMYAQFITVGLLLASVGLSMYENKLHPNKQKVNEMRRWENALRVAEEEERLEKEGRRTGYVSNEERINSKIFKS
# B2: Min8 (protein, UniProt A5Z2X5 1-72)
# chain: MRPAQLLLNTAKKTSGGYKIPVELTPLFLAVGVALCSGTYFTYKKLRTDETLRLTGNPELSSLDEVLAKDKD
# Tests used:
# [1] = molecular target: T1, Cox12, a subunit of CIV (S. cerevisiae (endogenous in YPH499 mitochondria)) (UniProt Q01519); assay: cross-linking; XL-MS, qualitative data sets: purified mitochondria from yeast grown on glycerol or glucose medium, 5 mM BS3, 1 h, room temperature, 10 mM HEPES pH 7.5, 100 mM NaCl; trypsin, peptide SEC, LC-MS/MS, pLink 1, at least two CSMs and spectrum score of 4 or more
# T1 sequence: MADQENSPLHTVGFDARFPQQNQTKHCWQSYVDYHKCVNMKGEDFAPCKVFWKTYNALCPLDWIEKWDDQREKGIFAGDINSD
# [2] = molecular target: Rcf3 (S. cerevisiae (endogenous in YPH499 mitochondria)); assay: as above
Molecule,binding [1],binding [2]
Rcf3,binds,
B1,,no binding
B2,,no binding
